According to the supplement of paper PMC10849652:
Some of the results follow.

Protein sequences, listed by entry. Tags and fused reporters are not part of them. Lines headed by an entry give the natural chain unless they say otherwise; changes in a name come on top.
UniProt Q86XK3: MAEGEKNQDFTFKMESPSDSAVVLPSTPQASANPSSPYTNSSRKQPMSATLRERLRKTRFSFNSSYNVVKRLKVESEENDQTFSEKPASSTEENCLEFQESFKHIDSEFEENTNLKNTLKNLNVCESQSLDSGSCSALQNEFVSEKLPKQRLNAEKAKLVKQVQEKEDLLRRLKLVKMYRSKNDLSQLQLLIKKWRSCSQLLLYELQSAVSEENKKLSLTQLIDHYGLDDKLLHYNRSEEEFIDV
UniProt O95470: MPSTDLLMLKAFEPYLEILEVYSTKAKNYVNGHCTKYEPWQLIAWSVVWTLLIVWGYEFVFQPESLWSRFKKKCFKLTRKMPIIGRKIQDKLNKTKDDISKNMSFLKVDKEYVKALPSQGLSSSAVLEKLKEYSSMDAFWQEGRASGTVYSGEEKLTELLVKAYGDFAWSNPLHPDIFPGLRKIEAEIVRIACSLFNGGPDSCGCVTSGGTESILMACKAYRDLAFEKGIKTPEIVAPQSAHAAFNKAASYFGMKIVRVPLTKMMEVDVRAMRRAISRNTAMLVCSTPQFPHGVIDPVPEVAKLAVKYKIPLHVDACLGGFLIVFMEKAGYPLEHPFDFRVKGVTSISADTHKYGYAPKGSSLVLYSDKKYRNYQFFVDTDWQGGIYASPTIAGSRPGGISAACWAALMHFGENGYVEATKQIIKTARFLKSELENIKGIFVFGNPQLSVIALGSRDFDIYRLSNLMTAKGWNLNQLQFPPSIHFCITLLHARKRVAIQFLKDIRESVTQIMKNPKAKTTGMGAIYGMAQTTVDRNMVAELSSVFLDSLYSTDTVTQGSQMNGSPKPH
UniProt P01008, whole entry, looked up: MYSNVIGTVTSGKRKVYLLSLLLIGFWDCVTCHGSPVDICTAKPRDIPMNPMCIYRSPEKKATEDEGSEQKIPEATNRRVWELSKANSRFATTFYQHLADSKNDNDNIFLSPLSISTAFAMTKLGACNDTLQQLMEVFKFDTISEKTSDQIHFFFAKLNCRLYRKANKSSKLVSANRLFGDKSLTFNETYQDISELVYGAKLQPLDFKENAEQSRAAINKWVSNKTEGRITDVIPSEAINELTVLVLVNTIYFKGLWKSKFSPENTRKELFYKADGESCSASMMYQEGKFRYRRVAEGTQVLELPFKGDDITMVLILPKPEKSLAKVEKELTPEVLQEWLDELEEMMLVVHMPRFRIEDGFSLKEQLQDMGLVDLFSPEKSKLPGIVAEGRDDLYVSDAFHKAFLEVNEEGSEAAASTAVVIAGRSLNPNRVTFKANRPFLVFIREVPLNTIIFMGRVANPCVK
UniProt Q6P4A7: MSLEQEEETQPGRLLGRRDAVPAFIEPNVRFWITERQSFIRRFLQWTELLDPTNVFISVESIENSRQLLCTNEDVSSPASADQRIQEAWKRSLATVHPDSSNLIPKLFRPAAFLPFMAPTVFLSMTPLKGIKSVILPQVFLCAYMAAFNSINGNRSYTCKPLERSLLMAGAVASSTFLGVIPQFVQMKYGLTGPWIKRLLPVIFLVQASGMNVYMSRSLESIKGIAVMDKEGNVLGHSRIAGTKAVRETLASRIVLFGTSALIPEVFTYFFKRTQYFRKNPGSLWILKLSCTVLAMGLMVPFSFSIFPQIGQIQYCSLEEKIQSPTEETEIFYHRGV
UniProt Q8N6T7, whole entry, looked up: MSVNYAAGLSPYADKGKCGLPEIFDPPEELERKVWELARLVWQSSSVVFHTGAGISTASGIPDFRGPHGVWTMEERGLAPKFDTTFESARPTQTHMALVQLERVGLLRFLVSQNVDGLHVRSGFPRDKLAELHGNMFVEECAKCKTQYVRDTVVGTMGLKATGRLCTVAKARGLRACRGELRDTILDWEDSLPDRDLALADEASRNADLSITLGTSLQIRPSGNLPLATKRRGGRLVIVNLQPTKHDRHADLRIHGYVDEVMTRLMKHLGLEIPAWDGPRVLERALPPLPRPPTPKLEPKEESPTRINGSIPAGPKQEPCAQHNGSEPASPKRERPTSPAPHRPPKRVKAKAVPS
UniProt Q8IXJ6: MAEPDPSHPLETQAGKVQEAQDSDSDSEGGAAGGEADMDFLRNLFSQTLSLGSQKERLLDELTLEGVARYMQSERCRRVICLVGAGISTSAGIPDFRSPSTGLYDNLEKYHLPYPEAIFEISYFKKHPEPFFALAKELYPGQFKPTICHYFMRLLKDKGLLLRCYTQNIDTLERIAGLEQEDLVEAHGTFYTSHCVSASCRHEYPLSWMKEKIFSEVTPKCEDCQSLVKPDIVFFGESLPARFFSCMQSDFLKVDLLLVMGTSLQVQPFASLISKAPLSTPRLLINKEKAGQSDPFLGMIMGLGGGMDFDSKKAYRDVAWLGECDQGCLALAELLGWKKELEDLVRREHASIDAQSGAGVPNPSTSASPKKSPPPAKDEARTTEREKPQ
UniProt Q96EB6: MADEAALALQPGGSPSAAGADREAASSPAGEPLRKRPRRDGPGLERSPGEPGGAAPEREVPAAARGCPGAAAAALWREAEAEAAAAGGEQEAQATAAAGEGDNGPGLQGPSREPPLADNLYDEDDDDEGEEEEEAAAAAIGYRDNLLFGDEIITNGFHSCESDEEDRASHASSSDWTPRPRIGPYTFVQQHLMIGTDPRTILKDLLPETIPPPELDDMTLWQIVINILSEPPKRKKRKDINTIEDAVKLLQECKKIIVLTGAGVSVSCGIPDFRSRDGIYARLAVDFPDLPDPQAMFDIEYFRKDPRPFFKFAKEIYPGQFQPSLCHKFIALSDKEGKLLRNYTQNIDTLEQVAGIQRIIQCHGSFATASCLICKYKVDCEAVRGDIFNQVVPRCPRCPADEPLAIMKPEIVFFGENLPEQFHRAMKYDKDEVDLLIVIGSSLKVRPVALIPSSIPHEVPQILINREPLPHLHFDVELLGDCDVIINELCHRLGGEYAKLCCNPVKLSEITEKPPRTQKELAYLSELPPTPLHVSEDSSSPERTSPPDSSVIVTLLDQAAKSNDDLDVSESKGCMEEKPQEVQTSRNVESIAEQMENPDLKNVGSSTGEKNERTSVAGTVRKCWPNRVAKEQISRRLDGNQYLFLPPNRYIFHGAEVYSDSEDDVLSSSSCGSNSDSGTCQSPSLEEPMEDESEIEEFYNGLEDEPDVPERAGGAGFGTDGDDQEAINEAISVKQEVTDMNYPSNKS
UniProt Q8IW75: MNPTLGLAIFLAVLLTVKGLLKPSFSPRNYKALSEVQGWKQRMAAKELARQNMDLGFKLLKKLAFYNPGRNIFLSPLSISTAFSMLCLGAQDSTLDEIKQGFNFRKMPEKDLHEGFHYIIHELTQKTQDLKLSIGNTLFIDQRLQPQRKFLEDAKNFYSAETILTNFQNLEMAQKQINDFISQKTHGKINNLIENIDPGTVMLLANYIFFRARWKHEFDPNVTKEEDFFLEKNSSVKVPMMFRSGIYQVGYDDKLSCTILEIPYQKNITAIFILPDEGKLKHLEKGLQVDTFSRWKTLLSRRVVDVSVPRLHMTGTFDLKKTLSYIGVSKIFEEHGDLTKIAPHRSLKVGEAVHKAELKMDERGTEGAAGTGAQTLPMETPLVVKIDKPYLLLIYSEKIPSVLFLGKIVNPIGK
UniProt Q9UHW9: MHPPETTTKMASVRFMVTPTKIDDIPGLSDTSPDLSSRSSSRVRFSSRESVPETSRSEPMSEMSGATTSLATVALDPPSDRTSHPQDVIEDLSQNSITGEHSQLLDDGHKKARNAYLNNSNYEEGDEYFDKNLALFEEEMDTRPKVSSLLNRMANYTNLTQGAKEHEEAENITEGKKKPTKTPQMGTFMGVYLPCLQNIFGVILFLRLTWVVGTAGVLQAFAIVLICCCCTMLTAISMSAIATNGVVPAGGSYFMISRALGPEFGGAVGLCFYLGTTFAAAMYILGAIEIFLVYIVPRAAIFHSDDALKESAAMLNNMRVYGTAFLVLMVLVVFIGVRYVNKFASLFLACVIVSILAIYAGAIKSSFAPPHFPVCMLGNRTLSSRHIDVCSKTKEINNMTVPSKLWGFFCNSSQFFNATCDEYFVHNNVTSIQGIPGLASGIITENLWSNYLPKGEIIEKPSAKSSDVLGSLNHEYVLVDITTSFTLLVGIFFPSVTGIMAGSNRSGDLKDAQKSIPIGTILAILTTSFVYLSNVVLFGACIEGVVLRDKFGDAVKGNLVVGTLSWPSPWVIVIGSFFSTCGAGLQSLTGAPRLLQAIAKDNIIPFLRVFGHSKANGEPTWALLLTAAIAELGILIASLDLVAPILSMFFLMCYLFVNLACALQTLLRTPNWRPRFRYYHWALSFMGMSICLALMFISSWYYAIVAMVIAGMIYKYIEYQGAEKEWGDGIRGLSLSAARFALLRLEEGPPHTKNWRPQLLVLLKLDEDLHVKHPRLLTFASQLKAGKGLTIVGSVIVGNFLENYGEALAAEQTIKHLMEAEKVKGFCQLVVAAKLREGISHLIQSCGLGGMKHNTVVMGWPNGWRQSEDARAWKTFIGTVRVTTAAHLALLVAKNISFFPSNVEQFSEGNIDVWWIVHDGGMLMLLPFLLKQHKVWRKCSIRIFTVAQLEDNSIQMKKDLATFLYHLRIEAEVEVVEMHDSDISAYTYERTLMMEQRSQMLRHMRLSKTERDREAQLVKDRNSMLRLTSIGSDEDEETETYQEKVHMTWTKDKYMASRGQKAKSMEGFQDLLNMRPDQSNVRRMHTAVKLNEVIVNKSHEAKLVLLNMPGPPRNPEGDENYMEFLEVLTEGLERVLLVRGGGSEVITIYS
UniProt Q5FBB7: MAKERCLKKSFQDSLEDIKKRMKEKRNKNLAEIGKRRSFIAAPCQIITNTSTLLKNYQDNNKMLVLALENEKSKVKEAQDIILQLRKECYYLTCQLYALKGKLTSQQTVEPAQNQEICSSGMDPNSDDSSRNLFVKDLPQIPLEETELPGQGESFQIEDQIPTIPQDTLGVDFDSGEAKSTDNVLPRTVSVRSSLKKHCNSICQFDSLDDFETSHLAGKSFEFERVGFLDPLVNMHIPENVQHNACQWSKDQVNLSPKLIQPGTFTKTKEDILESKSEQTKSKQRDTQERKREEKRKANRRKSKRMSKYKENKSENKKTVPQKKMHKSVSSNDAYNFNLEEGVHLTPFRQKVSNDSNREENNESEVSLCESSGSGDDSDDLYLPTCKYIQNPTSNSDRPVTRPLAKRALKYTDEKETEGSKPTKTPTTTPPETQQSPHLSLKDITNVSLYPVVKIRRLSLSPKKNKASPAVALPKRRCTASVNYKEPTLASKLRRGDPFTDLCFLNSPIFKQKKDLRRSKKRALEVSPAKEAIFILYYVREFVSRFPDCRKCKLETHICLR
UniProt Q9BRV8: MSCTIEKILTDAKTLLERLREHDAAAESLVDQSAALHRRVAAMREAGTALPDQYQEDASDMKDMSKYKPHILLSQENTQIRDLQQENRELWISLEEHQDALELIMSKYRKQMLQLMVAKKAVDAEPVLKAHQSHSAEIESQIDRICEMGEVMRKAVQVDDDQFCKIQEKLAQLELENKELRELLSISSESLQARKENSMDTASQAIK
UniProt P84101: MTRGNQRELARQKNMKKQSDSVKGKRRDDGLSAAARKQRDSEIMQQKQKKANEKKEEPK
UniProt Q99961: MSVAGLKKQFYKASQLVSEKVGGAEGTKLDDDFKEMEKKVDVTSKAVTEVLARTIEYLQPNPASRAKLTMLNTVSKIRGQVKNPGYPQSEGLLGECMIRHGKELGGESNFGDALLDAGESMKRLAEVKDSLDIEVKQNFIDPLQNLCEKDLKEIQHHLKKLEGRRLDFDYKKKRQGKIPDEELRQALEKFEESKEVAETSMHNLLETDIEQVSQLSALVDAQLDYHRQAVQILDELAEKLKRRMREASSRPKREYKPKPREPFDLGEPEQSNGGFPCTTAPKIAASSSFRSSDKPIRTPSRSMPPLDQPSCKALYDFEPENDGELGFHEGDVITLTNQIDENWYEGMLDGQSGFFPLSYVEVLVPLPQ
UniProt Q12874: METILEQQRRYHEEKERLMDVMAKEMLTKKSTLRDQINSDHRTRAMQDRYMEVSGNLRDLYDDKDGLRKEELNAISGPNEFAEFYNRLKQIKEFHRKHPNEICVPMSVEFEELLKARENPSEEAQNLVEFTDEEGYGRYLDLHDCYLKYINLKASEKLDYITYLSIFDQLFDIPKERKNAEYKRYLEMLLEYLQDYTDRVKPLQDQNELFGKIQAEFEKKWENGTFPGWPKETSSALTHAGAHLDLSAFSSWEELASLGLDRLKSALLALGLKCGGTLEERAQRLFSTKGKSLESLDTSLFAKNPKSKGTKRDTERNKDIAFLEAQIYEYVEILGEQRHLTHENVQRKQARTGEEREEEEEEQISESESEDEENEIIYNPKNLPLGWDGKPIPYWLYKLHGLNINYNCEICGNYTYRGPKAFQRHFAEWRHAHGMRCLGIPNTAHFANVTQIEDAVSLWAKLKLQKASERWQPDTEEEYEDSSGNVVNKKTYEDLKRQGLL

What follows are targets tested with C1=CC=C(C=C1)[C@H](COC2=CC3=C(C=C2)NC(=O)N3)NC(=O)C4=CC=CN(C4=O)CC5=CC(=C(C=C5)F)F (assay: log2 fold change, soluble protein after heating vs DMSO (PISA); higher = thermal stabilisation; K562 lysate, 10 uM; active = over 0.2 and 3.5 SD of the protein, either way, in both replicates (recomputed)).
Method in brief: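 Quantification was by TMTpro 16plex LC-MS/MS with equalised channel sums, applied to the supernatant after 21,000xg for 90 min. Samples were crude K562 extract at 1 mg/mL protein in PBS pH 7.4 with 1 mM MgCl2, treated with 10 μM compound for 30 min, heated for 3 min across 48°C-58°C, pooled and brought to 0.5% NP-40 at 4°C. Values are log-two fold changes in thermal stability relative to solvent controls, from duplicates.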

| Target | log2 fold change |
| --- | --- |
| SH3BP1 (UniProt Q9Y3L3) | inactive: 0.011 |
| SIX5 (UniProt Q8N196) | inactive: -0.011 |
| SH2B1 (UniProt Q9NRF2) | inactive: 0.198 |
| SIPA1L1 (UniProt O43166) | inactive: 0.135 |
| SH3BGR (UniProt P55822) | inactive: 0.111 |
| SIAH2 (UniProt O43255) | inactive: 0.065 |
| SERPINF2 (UniProt P08697) | inactive: 0.208 |
| SLAIN2 (UniProt Q9P270) | inactive: 0.031 |
| SFR1 isoform 2 (UniProt Q86XK3) | inactive: -0.035 |
| SGPL1 (UniProt O95470) | inactive: -0.019 |
| SETD2 (UniProt Q9BYW2) | inactive: -0.076 |
| SIMC1 (UniProt Q8NDZ2) | inactive: -0.29 |
| SHQ1 (UniProt Q6PI26) | inactive: 0.019 |
| SERPINC1 (UniProt P01008) | inactive: 0.171 |
| SFXN4 (UniProt Q6P4A7) | inactive: 0.027 |
| SIRT6 (UniProt Q8N6T7) | inactive: 0.06 |
| SIRT2 (UniProt Q8IXJ6) | inactive: 0.016 |
| SH3GLB2 (UniProt Q9NR46) | inactive: 0.027 |
| SH2D2A isoform 2 (UniProt Q9NP31) | inactive: 0.111 |
| SIRT1 (UniProt Q96EB6) | inactive: 0.006 |

Already shown: an excerpt of the list.

| Target | log2 fold change |
| --- | --- |
| SIRT2 (UniProt Q8IXJ6) | inactive: 0.016 |
| SH3GLB2 (UniProt Q9NR46) | inactive: 0.027 |
| SH2D2A isoform 2 (UniProt Q9NP31) | inactive: 0.111 |

The results go on.

| Target | log2 fold change |
| --- | --- |
| SERPINA7 (UniProt P05543) | inactive: -0.105 |
| SETD3 (UniProt Q86TU7) | inactive: 0.044 |
| SFPQ (UniProt P23246) | inactive: -0.03 |
| SERPINA12 (UniProt Q8IW75) | inactive: -0.166 |
| SLC12A6 (UniProt Q9UHW9) | inactive: 0.006 |
| SGO1 (UniProt Q5FBB7) | inactive: 0.061 |
| SF3A2 (UniProt Q15428) | inactive: -0.036 |
| SIKE1 (UniProt Q9BRV8) | inactive: 0.123 |
| SERAC1 (UniProt Q96JX3) | inactive: -0.122 |
| SERF2 (UniProt P84101) | inactive: 0.095 |
| SH3GL1 (UniProt Q99961) | inactive: 0.007 |
| SLC19A2 (UniProt O60779) | inactive: -0.147 |
| SH3BP5L (UniProt Q7L8J4) | inactive: 0.015 |
| SLC20A2 (UniProt Q08357) | inactive: 0.062 |
| SERINC1 (UniProt Q9NRX5) | inactive: 0.086 |
| SH3GL3 isoform 3 (UniProt Q99963) | inactive: 0.024 |
| SFXN4 isoform 3 (UniProt Q6P4A7) | inactive: -0.063 |
| SERBP1 isoform 3 (UniProt Q8NC51) | inactive: 0.227 |
| SF3A3 (UniProt Q12874) | inactive: -0.001 |
